Experimental data taken from publication PMC7782543.
Results are given in words; binding and its absence hold for the method and conditions named. Binding seen in cells or lysates may run through a third protein. Binding calls can cover weak binding; strength is not graded here. Values belong to the substance of their own block, whether it stands above or below them.

By UniProt entry, the sequences of proteins in these tests, tags left out. Where a name states a change or a piece, a line headed by the entry shows the natural chain unless it says otherwise.
UniProt P01138: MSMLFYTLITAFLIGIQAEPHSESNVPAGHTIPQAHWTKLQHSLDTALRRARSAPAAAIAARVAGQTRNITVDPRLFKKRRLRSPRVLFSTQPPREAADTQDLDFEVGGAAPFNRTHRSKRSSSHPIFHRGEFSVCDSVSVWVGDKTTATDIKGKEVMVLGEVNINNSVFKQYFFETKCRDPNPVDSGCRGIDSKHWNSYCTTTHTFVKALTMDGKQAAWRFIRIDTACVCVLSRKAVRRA
UniProt P08173: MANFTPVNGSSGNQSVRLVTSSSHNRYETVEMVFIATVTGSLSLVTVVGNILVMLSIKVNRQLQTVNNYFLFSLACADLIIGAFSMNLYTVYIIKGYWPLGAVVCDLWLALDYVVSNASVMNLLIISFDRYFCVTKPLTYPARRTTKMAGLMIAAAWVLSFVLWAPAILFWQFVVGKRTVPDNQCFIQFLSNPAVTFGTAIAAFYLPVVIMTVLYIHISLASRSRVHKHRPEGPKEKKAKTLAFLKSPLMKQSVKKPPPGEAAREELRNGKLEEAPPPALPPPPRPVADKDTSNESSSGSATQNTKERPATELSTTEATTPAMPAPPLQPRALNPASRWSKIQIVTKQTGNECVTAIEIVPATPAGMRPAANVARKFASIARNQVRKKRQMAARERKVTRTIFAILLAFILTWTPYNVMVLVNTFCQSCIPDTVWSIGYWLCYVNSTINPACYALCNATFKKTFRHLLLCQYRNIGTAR

What was measured:
[1] = molecular target: Nerve growth factor (human (endogenous in LNCaP, C4-2, PC3 and NCI-H660)) (UniProt P01138); assay: co-IP; IP of endogenous NGF or of endogenous CHRM4 from cell lysates, Western blot of CHRM4 and NGF; LNCaP and C4-2 cells cultured in CSS-containing medium for 1 week (with or without stable NGF knockdown); PC3 and NCI-H660 cells stably expressing non-target control or NGF shRNA
[2] = molecular target: recombinant NGF protein (UniProt P01138); assay: co-IP; mixture of recombinant NGF protein and in vitro transcription/translation-synthesized Flag-CHRM4; IP of the NGF, Western blot of CHRM4 and NGF; control IgG IP as negative control; only the target purified
[3] = molecular target: cholinergic receptor muscarinic 4 (human (endogenous in LNCaP, C4-2, PC3 and NCI-H660)) (UniProt P08173); assay: co-IP; IP of endogenous NGF or of endogenous CHRM4 from cell lysates, Western blot of CHRM4 and NGF; LNCaP and C4-2 cells cultured in CSS-containing medium for 1 week (with or without stable NGF knockdown); PC3 and NCI-H660 cells stably expressing non-target control or NGF shRNA
[4] = molecular target: in vitro transcription/translation-synthesized Flag-tag CHRM4 protein (UniProt P08173); assay: co-IP; mixture of recombinant NGF protein and in vitro transcription/translation-synthesized Flag-CHRM4; IP of Flag, Western blot of CHRM4 and NGF; control IgG IP as negative control; only the binder purified

binding [1]: binds
Substance: cholinergic receptor muscarinic 4 (from UniProt P08173 1-479)

binding [2]: binds
Substance: in vitro transcription/translation-synthesized Flag-tag CHRM4 protein (from UniProt P08173 1-479) (receptor)

binding [3]: binds
Substance: Nerve growth factor (from UniProt P01138) (ligand)

binding [4]: binds
Substance: recombinant NGF protein (from UniProt P01138) (ligand)
